Measured values: patent US6482609B1, “Isolated human EDG-4 receptor and polynucletide encoding said receptor” (priority 1997, dated 2002)
For at least one compound, name, drawing or mass did not settle the structure.

Test system: HeLa cells
Assay: IL-8 ELISA on supernatants of treated HeLa cells
Type: cell-based, human
Conditions: 1, 3, 10 μM, 6 hours
Procedure: Procedure #1 For HeLa Cells
Cells: HeLa (adenocarcinoma, human)
Media: DMEM/F12+10%FBS adherent
1) Cells were seeded at 0.2×10^6 cells/well in 6-well plates.
2) 1.5 ml 0.5% FBS media was added to each well.
1) Made up all required solutions in 0.5% FBS media (control). Handling of […] for use in NF-κB experiments requires that sonication, commonly used to resuspend LPA, not be done; NF-κB may be activated by lipid peroxides created through vigorous frothing.
3) 1.5 ml appropriate treatments were added to each well.
5) After the specified time cell supernatants were collected into 1.5 ml eppendorf tubes, spun down at 14000 rpm for 5 minutes and stored at −20° C. for later ELISA determination.
D. Detection of Interleukin-8 (IL-8) using an IL-8 ELISA (Enzyme-Linked InimunoSorbent Assay).
1) The Quantikine Human IL-8 ImmunoAssay Kit was obtained from R&D Systems (Cat. D8050).
4) The assay procedure was followed as recommended in the kit for cell culture supernatant samples.
5) ELISA was performed on 50 μl samples of culture supernatant and duplicate samples were measured for each well. Each treatment was performed on triplicate wells.
6) Plates were read on UVmax kinetic microplate reader (Molecular Devices), set to 450 nm and correction set to 575 nm, using Wsoftmax software version 2.34.
Procedure #2 For HeLa Cells
1) Cells were seeded at 2.5×10^4 cells/well in 24-well plates. […]

For `CCCCCCCCCCCCCCCCCCOCC(COP(=O)([O-])OCC[N+](C)(C)C)OC` (stereo not shown) [Edelfosine], the “IL-8 response to edelfosine” value was “induced an IL-8 response in HeLa cells at non-cytotoxic concentrations”.
